Screen size: about 320,000 compounds; about 22,000 (6.9%) were called active. This list was built around the results that the source calls inconclusive (neither active nor inactive); the mix of calls is not that of the screen. Calls follow the shape of the dose curve; as a rule, active = well fitted inhibition curve with a large enough effect; inconclusive = small, poorly fitted or top-dose-only effect, or another doubt; inactive = no such curve, though single readings can be large or run the other way. Potencies of inconclusive entries are doubtful fits and often do not repeat.
Assay: Primary qHTS for delayed death inhibitors of the malarial parasite plastid, 96 hour incubation
Conditions: P. falciparum luciferase reporter growth; series mostly up to 28.7 µM
Method in brief: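 Compounds incubated with erythrocytes infected by luciferase-expressing P. falciparum (2% hematocrit, 0.05% parasitemia final) for 96 hours, 37 C in 5% CO2. Growth inhibition scored as decreased luciferase luminescence.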
Potency is read from the fitted curve at half-maximal effect.

| SMILES | Potency |
| --- | --- |
| O=C(CC1C(=O)NCCN1Cc1ccc(F)cc1)NCCOc1cccnc1 (centres undefined) | inconclusive: 18.5 µM [inhibitor, single point] |
| Cc1cccc(-c2nsc(SCC(=O)Nc3ccc4c(c3)OCO4)n2)c1 | inactive |
| COCCCn1cc(C(=O)c2cc(Br)ccc2O)cc(C#N)c1=O | active: 9.28 µM |
| Cc1ccccc1OCc1n[nH]c(=S)n1-c1cccc(Cl)c1 | inconclusive: 1.47 µM [inhibitor, partial curve, poor fit] |
| CCOC(=O)/C(=N\Nc1ccccc1)c1csc(Nc2ccc(C)cc2)n1 | inconclusive: 18.5 µM [inhibitor, partial curve, poor fit] |
| Cc1ccc(C(=O)c2coc3ccc(O)c(Cl)c23)cc1 | inactive |
| CCOc1cc(C(=O)N(CC)CC(=O)Nc2c(F)cccc2F)ccc1OCC(=O)N1CCOCC1 | inactive |
| CCc1ccc2oc(-c3cccc(NC(=O)c4cccnc4)c3)nc2c1 | inactive |
| Cn1c(SCC(=O)c2ccccc2)nnc1-c1ccco1 | active: 14.7 µM |
| Cc1ccc(C(=O)N2CCCC(CCC(=O)N3CCN(c4ccccn4)CC3)C2)cn1 (centres undefined) | inconclusive: 5.22 µM [inhibitor, partial curve, poor fit] |
| C/C(CC(=O)Nc1ccc(Cl)cc1Cl)=N\NC(=O)c1ccco1 | inactive |
| Cc1cc(C)c(C(=O)COC(=O)C2CCN(c3ccc(C(F)(F)F)cn3)CC2)c(C)c1 | inconclusive: 13.1 µM [inhibitor, single point] |
| CN(C)NC(=S)NC1(C)CCS(=O)(=O)C1 (centres undefined) | inactive |
| CCOC(=O)COc1ccc(C(c2c(C)[nH][nH]c2=O)c2c(C)[nH][nH]c2=O)cc1 | inconclusive: 4.15 µM [inhibitor, full curve, poor fit] |
| CC(C)CNC(=O)[C@@H]1CSC2c3ccccc3C(=O)N21 (some centres undefined) | inactive |
| Cc1nc(NC(=O)c2ccco2)sc1C(=O)O | inactive |
| COC(=O)c1c2c(nc3ccccc13)CCC2 | inconclusive: 0.0059 µM [inhibitor, full curve, poor fit] |
| COc1ccc(C(=O)OCc2c(-c3cccc(OC)c3)ncc3ccccc23)cc1 | inconclusive: 14.7 µM [inhibitor, single point] |
| O=C(NCC(=O)N(c1ccccc1F)C(C(=O)NC1CCCC1)c1ccncc1)c1ccco1 (centres undefined) | inconclusive: 2.08 µM [inhibitor, partial curve, poor fit] |
| Cc1onc(-c2ccccc2)c1NC(=O)Nc1c(-c2ccccc2)noc1C | inconclusive: 5.86 µM [inhibitor, single point] |
| Cc1ccc(NS(=O)(=O)c2ccc3c(c2)NC(=O)CCS3)c(C)c1 | active: 10.4 µM |
| Cc1ccc(-n2ncc3c2CC(C)(C)CC3NC(=O)CCc2ccncc2)cc1 (centres undefined) | inconclusive: 18.5 µM [inhibitor, single point] |
| Cc1nnc(NS(=O)(=O)c2ccc(Br)cc2)s1 | inconclusive: 13.1 µM [inhibitor, single point] |
| CCOC(=O)c1oc2ccccc2c1COC(=O)CNC(=O)c1ccc(C)cc1 | inactive |
| O=C(c1ccccc1C(=O)N1CCN(c2ccccc2)CC1)N1CCN(c2ccccc2)CC1 | inactive |

| SMILES | Potency |
| --- | --- |
| Cc1ccc(NC(=O)/C(=C/c2ccco2)c2ccccc2)c(C)c1 | inactive |
| CCc1ccc(S(=O)(=O)Nc2ccc(C)c(NS(C)(=O)=O)c2)cc1 | inactive |
| CC1=C(C(=O)OCC2CCCO2)C(c2coc3ccccc3c2=O)C2=C(CCCC2=O)N1 (centres undefined) | inactive |
| OCC1(Cc2ccc(F)cc2)CCCN(CCc2ccccc2)C1 (centres undefined) | inconclusive: 18.5 µM [inhibitor, single point] |
| CCOC(=O)c1n[nH]c2ccccc12 | inconclusive: 1.17 µM [inhibitor, partial curve, poor fit] |
| Cc1cc(C(=O)COC(=O)CCC(=O)c2ccc3c(c2)OCCO3)c(C)n1Cc1ccco1 | inconclusive: 11.7 µM [inhibitor, partial curve] |
| Cn1cnnc1SCC(=O)n1c2ccccc2c2ccccc21 | inactive |
| OC(COc1c(F)cc(Br)cc1F)CN1CCc2ccccc2C1 (centres undefined) | inconclusive: 16.5 µM [inhibitor, single point] |
| O=C(OC1CCOC1=O)c1cccc(S(=O)(=O)N2CCc3ccccc3C2)c1 (centres undefined) | inconclusive: 14.7 µM [inhibitor, single point] |
| Cc1cccc(NC(=O)/C(=C\c2ccc([N+](=O)[O-])o2)NC(=O)c2ccc(Cl)cc2)c1 | inactive |
| O=C(NC(=S)NCC1CCCO1)c1ccccc1[N+](=O)[O-] (centres undefined) | inactive |
| Nc1cc(N)nc(SCc2cc([N+](=O)[O-])cc3c2OCOC3)n1 | inconclusive: 0.233 µM [inhibitor, full curve, poor fit] |
| CCOc1ccccc1OCCC(=O)OCC(=O)Nc1c(C)nn(-c2ccccc2)c1C | inactive |
| CC(C)N1CC(C(=O)Nc2cc(Cl)cc(Cl)c2)CC1=O (centres undefined) | inactive |
| Cc1onc(-c2c(F)cccc2Cl)c1C(=O)OCC(=O)c1c[nH]c2ccccc12 | inconclusive: 18.5 µM [inhibitor, single point] |
| CCNc1nc(Oc2ccc(=O)n(-c3ccccc3)n2)nc(N2CCOCC2)n1 | inconclusive: 18.5 µM [inhibitor, single point] |
| O=C(Nc1nnc(C2=COCCO2)o1)c1ccc(S(=O)(=O)N2CCCC2)cc1 | inactive |
| Cc1cc(C)cc(OCC(=O)Nc2nonc2NC(=O)COc2cc(C)cc(C)c2)c1 | inactive |
| Cn1c(=O)c2c(nc(SCCN3CCOCC3)n2Cc2ccc(F)cc2)n(C)c1=O | inconclusive: 10.4 µM [inhibitor, single point] |
| CN=c1scc(-c2cc(OC)ccc2OC)n1/N=C/c1c(C)[nH]c2ccccc12 | active: 6.57 µM |
| COCCCn1c(=O)c2sccc2n(Cc2cccc(C)c2)c1=O | inconclusive: 18.5 µM [inhibitor, single point] |
| O=C(NCCc1ccc(Cl)cc1)C1CCC(=O)N1Cc1ccc(F)cc1 (centres undefined) | inconclusive: 9.28 µM [inhibitor, partial curve, poor fit] |
| CC(C)N1CCC(N2CCN(C/C=C/c3ccc(F)cc3)CC2CCO)CC1 (centres undefined) | inactive |
| O=C(NCc1ccco1)C1CCCN(c2nnc(-n3cccc3)s2)C1 (centres undefined) | inactive |
| COc1ccc(N2CC(C(=O)N/N=C/c3ccc([N+](=O)[O-])cc3)CC2=O)cc1 (centres undefined) | inconclusive: 5.22 µM [inhibitor, partial curve, poor fit] |

5 compounds already listed, arranged by SMILES length, low to high.

| SMILES | Potency |
| --- | --- |
| COCCCn1c(=O)c2sccc2n(Cc2cccc(C)c2)c1=O | inconclusive: 18.5 µM [inhibitor, single point] |
| O=C(NCc1ccco1)C1CCCN(c2nnc(-n3cccc3)s2)C1 (centres undefined) | inactive |
| O=C(NCCc1ccc(Cl)cc1)C1CCC(=O)N1Cc1ccc(F)cc1 (centres undefined) | inconclusive: 9.28 µM [inhibitor, partial curve, poor fit] |
| Cc1cccc(-c2nsc(SCC(=O)Nc3ccc4c(c3)OCO4)n2)c1 | inactive |
| CCc1ccc(S(=O)(=O)Nc2ccc(C)c(NS(C)(=O)=O)c2)cc1 | inactive |

Continued:

| SMILES | Potency |
| --- | --- |
| Cc1ccc(C(=O)N2CCCC(Nc3ccc(C(C)C)cc3)C2)cn1 (centres undefined) | inconclusive: 13.1 µM [inhibitor, single point] |
| Cc1ccnc(SCc2ccc([N+](=O)[O-])cc2)n1 | inconclusive: 18.5 µM [inhibitor, single point] |
| N#Cc1nc(-c2ccco2)oc1N1CCc2ccccc2C1 | inactive |
| Cc1ccc(S(=O)(=O)N2CCN(CC(=O)Nc3ccccc3C(=O)NC3CC3)CC2)cc1 | inactive |
| Cn1c(-c2sccc2OCc2ccccc2)n[nH]c1=S | inconclusive: 18.5 µM [inhibitor, single point] |
| O=C(N/N=C/c1cc(Cl)cc(Cl)c1O)c1ccncc1 | active: 2.33 µM |
| CC[C@@]12C(=O)N(c3cccc(Br)c3)C(=O)N1[C@H](c1ccc(OC)cc1)[C@@H]1C(=O)N(C(C)(C)C)C(=O)[C@@H]12 | inconclusive: 13.1 µM [inhibitor, partial curve, poor fit] |
| Cc1cc(C(N)=O)c2ccccc2n1 | inconclusive: 18.5 µM [inhibitor, single point] |
| COc1ccc(Nc2nnc(SCC3CCCCO3)s2)cc1 (centres undefined) | active: 13.1 µM |
| CS(=O)(=O)N1CCN(c2ccc([N+](=O)[O-])c(N3CCOCC3)c2)CC1 | inconclusive: 0.0029 µM [inhibitor, partial curve, poor fit] |
| Cc1ccc2cc(CN(CCN3CCCC3)C(=O)Nc3ccc(F)cc3)c(=O)[nH]c2c1C | inactive |
| COc1ccc(C)cc1NC(=O)C1CCN(C(=O)Cc2ccccc2)CC1 | inactive |
| COc1ccc(CC(=O)Nc2nc(C)cs2)cc1 | inconclusive: 18.5 µM [inhibitor, single point] |
| O=C(CCc1nc2ccccc2c(=O)[nH]1)OCc1ccc(Cl)cc1Cl | inactive |
| Cc1ccc(Cn2ccc(NC(=O)c3nc4ncccn4n3)n2)cc1 | inconclusive: 0.104 µM [inhibitor, full curve, poor fit] |
| CC1CN(C(=O)CCC(=O)NCCCN2CCN(Cc3ccccc3)CC2)c2cc(Cl)ccc2O1 (centres undefined) | inconclusive: 18.5 µM [inhibitor, single point] |
| CC(=O)c1ccc(NC(=S)N2c3ccccc3CC2C)cc1 (centres undefined) | inconclusive: 0.0928 µM [inhibitor, full curve, poor fit] |
| COCCNC(=S)N/N=C(\C)c1ccc(OC(F)F)cc1 | inconclusive: 18.5 µM [inhibitor, single point] |
| COc1ccc2c(c1)C(=O)C(=O)N2CC1COc2ccccc2O1 (centres undefined) | inactive |
| O=C(CCn1c(=S)[nH]c2ccccc2c1=O)N1CCCCC1 | inconclusive: 18.5 µM [inhibitor, single point] |
| CC(=O)C1C(=O)c2c(cccc2[N+](=O)[O-])C1=Nc1ccccc1C (centres undefined) | active: 0.0037 µM |
| CN(C)S(=O)(=O)c1ccc(NC(=O)CN2CCN(c3ccccn3)CC2)cc1 | inactive |
| Cc1c(Cl)cccc1NC(=S)NCc1cccs1 | inactive |
| O=C(NCc1ccccc1)C(c1cccs1)N(C(=O)c1csnn1)C1CC1 (centres undefined) | inconclusive: 16.5 µM [inhibitor, partial curve] |

As entered above:
Potency with Cc1ccc(S(=O)(=O)N2CCN(CC(=O)Nc3ccccc3C(=O)NC3CC3)CC2)cc1 is entered as inactive
Potency with COc1ccc(CC(=O)Nc2nc(C)cs2)cc1 is entered as inconclusive: 18.5 µM [inhibitor, single point]

Source: PubChem BioAssay AID504834 (National Center for Advancing Translational Sciences (NCATS), 2011)
